Results reported in patent publication US6403764.
No constants are given. Whether binding was seen depends on the method and setting. Some binding calls cover weakened binding; strength is not graded here.

Amino acid sequences for entries named in this document (tags omitted). A change or cut given only in a name is not applied to a line headed by its entry. Residues count along the entry.
UniProt P17936, residues 28-291: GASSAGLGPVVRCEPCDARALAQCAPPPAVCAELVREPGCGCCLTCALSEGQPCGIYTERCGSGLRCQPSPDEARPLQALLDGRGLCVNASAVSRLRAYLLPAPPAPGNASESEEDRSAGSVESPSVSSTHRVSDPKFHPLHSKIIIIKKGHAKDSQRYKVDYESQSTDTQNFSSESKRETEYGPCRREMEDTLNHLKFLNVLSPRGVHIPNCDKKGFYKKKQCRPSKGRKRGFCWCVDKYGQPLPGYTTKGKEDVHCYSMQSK
UniProt P05019: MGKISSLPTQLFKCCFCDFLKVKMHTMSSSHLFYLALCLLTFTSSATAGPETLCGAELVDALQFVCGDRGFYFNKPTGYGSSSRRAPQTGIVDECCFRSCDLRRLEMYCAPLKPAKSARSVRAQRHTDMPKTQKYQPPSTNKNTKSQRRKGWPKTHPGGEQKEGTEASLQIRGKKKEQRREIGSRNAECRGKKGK

How the values were obtained:
human IGFBP-1 = molecular target: T1, human IGFBP-1 (human, UniProt P08833 26-259); assay: BIACORE
T1 construct: mature; Secreted recombinant protein; also called IGFBP-I
T1 sequence (looked up): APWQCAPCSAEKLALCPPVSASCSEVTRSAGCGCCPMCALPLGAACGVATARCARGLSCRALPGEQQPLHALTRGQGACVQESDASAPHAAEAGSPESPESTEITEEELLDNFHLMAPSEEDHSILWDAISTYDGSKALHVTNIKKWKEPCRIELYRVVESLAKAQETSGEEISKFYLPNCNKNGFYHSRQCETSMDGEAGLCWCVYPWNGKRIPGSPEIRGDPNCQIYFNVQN

[1] = molecular target: T2, recombinant human IGFBP-3 (human, UniProt P17936 28-291); assay: BIACORE
T2 construct: mature; Secreted recombinant protein

G1S-A70V IGF-I, purified soluble (from UniProt P05019 50-117) (ligand)
binding (human IGFBP-1): binds | binding [1]: binds
